PubChem BioAssay AID1508587 | Peter MacCallum Cancer Centre | 2020

- Aim: 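Retest of knockdowns boosting BRAF inhibitor action on lactate release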 (follow-up of hits)
- Cell system: human WM266.4 melanoma cells with a BRAF V600 mutation
- Reagents: single siRNA against human genes, 25 nM
- Timing: 96 h
- Conditions: vemurafenib 300 nM (about IC25), given 48 h after transfection for 48 h
- Detection: 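Medium lactate read by absorbance over DAPI-counted nuclei; ratio with versus without vemurafenib, set against non-targeting siRNA, averaged over 2 replicates; cell number also recorded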
- Reading the numbers: lactate per cell, drug vs no drug: higher = less drug-induced drop in lactate per cell; lactate per cell with vemurafenib: higher = more lactate per cell under drug; lactate per cell without drug: higher = more lactate per cell without drug; cell growth with vemurafenib and cell growth without drug: higher = more cell growth over 48 h
- Rule for the call: 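Enhancer call for any duplex whose drug versus no-drug per-cell lactate ratio is below 0.55 (2 SD beneath non-targeting average); genes confirmed when at least 2 of their 4 duplexes qualify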
Shown is one part, drawn at random, of about 1,600 reagents tested. 623 of all reagents (39%) were called active. 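Calls are for each duplex; lactate ratios contain extreme outliers.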 A number with no mark means an inactive call. The numbers tell different reagents against one gene apart. No sequences are given here.

target gene | reagent no. | lactate per cell, drug vs no drug | lactate per cell with vemurafenib | lactate per cell without drug | cell growth with vemurafenib | cell growth without drug
PM20D2 | 1 | 0.67 | 0.77 | 0.85 | 0.64 | 1.08
PM20D2 | 2 | 0.34 (active) | 0.4 | 0.85 | 0.13 | 0.32
PM20D2 | 3 | 0.64 | 0.78 | 0.88 | 0.35 | 0.26
PM20D2 | 4 | 0.94 | 1.35 | 1.09 | 0.5 | 0.57
SEC61A1 | 1 | 0.24 (active) | 0.38 | 1 | 0.16 | 0.16
SEC61A1 | 2 | 0.68 | 1.38 | 1.35 | 0.12 | 0.18
SEC61A1 | 3 | 0.59 | 0.84 | 0.92 | 0.38 | 0.64
SEC61A1 | 4 | 0.64 | 1.37 | 1.42 | -0.06 | 0.18
IL1RAPL1 | 1 | 0.7 | 1.5 | 1.42 | 0.3 | 0.34
IL1RAPL1 | 2 | 0.52 (active) | 0.64 | 0.82 | 0.7 | 1.17
IL1RAPL1 | 3 | 0.64 | 2.1 | 2.15 | 0.46 | 0.36
IL1RAPL1 | 4 | 0.6 | 0.66 | 0.73 | 0.15 | 0.36
ANKRD26 | 1 | 0.65 | 1.34 | 1.28 | 0.31 | 0.56
ANKRD26 | 2 | 0.38 (active) | 1.23 | 2.06 | 0.63 | 0.14
ANKRD26 | 3 | 0.58 | 0.5 | 0.52 | 0.46 | 0.87
ANKRD26 | 4 | 0.6 | 2.84 | 3 | 0.02 | -0.04
PLAGL1 | 1 | 0.52 (active) | 0.82 | 0.92 | 1.03 | 1.04
PLAGL1 | 2 | 0.31 (active) | 1.5 | 2.91 | 0.1 | -0.06
PLAGL1 | 3 | 0.42 (active) | 0.76 | 1.07 | -0.08 | 0.26
PLAGL1 | 4 | 0.54 (active) | 1.08 | 1.19 | 0.49 | 0.58
L3MBTL3 | 1 | 0.16 (active) | 0.32 | 1.3 | 0.03 | 0.03
L3MBTL3 | 2 | 0.57 | 1.74 | 1.93 | 0.14 | 0.08
L3MBTL3 | 3 | 0.24 (active) | 0.26 | 0.69 | 0.37 | 0.87
L3MBTL3 | 4 | 0.44 (active) | 1.15 | 1.58 | 0.69 | 0.3
LSM1 | 1 | 0.63 | 1.45 | 1.5 | 0.28 | 0.37
LSM1 | 2 | 0.42 (active) | 0.6 | 0.93 | 0.63 | 0.57
LSM1 | 3 | 0.69 | 1.9 | 1.81 | 0.35 | 0.27
LSM1 | 4 | 0.68 | 1.15 | 1.12 | 0.87 | 0.86
LOC90462 (retired record) | 1 | 0.57 | 1.34 | 1.6 | 0.72 | 0.52
LOC90462 (retired record) | 2 | 0.6 | 1.44 | 1.6 | 0.01 | 0.11
LOC90462 (retired record) | 3 | 0.29 (active) | 0.3 | 0.7 | 0.17 | 0.36
LOC90462 (retired record) | 4 | 0.52 (active) | 0.74 | 0.98 | 0.78 | 0.51

Next part (4 carried over from the part before).
target gene | reagent no. | lactate per cell, drug vs no drug | lactate per cell with vemurafenib | lactate per cell without drug | cell growth with vemurafenib | cell growth without drug
LOC90462 (retired record) | 1 | 0.57 | 1.34 | 1.6 | 0.72 | 0.52
LOC90462 (retired record) | 2 | 0.6 | 1.44 | 1.6 | 0.01 | 0.11
LOC90462 (retired record) | 3 | 0.29 (active) | 0.3 | 0.7 | 0.17 | 0.36
LOC90462 (retired record) | 4 | 0.52 (active) | 0.74 | 0.98 | 0.78 | 0.51
ZNF597 | 1 | 0.53 (active) | 1.08 | 1.29 | 0.91 | 0.68
ZNF597 | 2 | 0.7 | 2.59 | 2.35 | -0.07 | 0
ZNF597 | 3 | 0.57 | 1.06 | 1.17 | 0.79 | 0.75
ZNF597 | 4 | 0.64 | 0.96 | 0.94 | 0.41 | 0.7
TBC1D5 | 1 | 0.18 (active) | 0.23 | 0.86 | 0.22 | 0.28
TBC1D5 | 2 | 0.78 | 1.73 | 1.54 | -0.04 | -0.04
TBC1D5 | 3 | 0.74 | 1.15 | 1.04 | 0.99 | 0.99
TBC1D5 | 4 | 0.68 | 3.06 | 3.07 | 0.2 | 0.06
GPR157 | 1 | 0.58 | 1.55 | 1.73 | 0.29 | 0.29
GPR157 | 2 | 0.3 (active) | 0.2 | 0.42 | 0.15 | 0.36
GPR157 | 3 | 0.8 | 4.66 | 3.83 | 0.03 | 0.04
GPR157 | 4 | 0.76 | 1.08 | 0.89 | 1.17 | 1.29
TMPPE | 1 | 0.53 (active) | 1.24 | 1.66 | 0.34 | 0.26
TMPPE | 2 | 0.5 (active) | 0.7 | 1.04 | 0 | 0.41
TMPPE | 3 | 0.75 | 1.06 | 1.01 | 0.13 | 0.22
TMPPE | 4 | 0.4 (active) | 0.67 | 1.23 | 0.67 | 0.32
LEMD2 | 1 | 1.02 | 5.41 | 3.56 | 0.03 | 0.02
LEMD2 | 2 | 0.72 | 1.14 | 1.08 | 1.03 | 0.8
LEMD2 | 3 | 0.63 | 1.68 | 1.8 | 0.3 | 0.19
LEMD2 | 4 | 0.72 | 1.36 | 1.27 | 0.59 | 0.51
